The values below come from publication PMC4548209.

Sequences of proteins named here, by UniProt entry; tags and fusion partners are left off.
UniProt Q02780: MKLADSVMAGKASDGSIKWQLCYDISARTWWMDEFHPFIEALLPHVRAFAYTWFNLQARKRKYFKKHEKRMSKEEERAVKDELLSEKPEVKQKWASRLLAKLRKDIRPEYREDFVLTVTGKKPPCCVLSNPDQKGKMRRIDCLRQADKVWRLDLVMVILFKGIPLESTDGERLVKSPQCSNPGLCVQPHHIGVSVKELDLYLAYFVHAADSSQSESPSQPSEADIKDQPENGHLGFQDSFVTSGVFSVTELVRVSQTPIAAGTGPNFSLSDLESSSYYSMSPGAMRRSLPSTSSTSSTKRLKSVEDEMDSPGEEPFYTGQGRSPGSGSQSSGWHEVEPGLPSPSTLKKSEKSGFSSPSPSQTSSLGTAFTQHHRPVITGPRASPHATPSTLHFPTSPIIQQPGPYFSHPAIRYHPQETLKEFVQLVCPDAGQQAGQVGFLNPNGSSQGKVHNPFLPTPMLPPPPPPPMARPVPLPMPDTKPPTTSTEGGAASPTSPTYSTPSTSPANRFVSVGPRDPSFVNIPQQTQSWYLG

These are yes or no findings as the source states them, for the method shown. For part of these data: In cells and extracts the contact can be indirect. Some entries that bind do so weakly or less than the wild type.

Test [1] has as its target NKX2-5 C-terminal region (aa198-318) (yeast two-hybrid fusion) (mouse) (UniProt P42582). Briefly: two-hybrid; pGADT7-AD and pGBKT7-DBD fusions co-transformed into S. cerevisiae AH109; interaction as growth on -Ade/-His/-Leu/-Trp plates; three independent experiments.
In test [2] the target is Full-length NKX2-5 (yeast two-hybrid fusion) (mouse) (UniProt P42582). The description is as above.
Test [3] has as its target NKX2-5 WT (Cerulean or Venus fusion for psFRET) (mouse) (UniProt P42582). Briefly: FRET or BRET; processed spectral FRET (psFRET) in live CV-1 cells transfected with Cerulean (donor) and Venus (acceptor) fusions. On the technique in general: BRET reads energy transfer from a luciferase to a nearby fluorophore.
Test [4] addresses NKX2-5∆HD (NKX2-5 V142_Q199del) (Cerulean or Venus fusion for psFRET) (mouse) (UniProt P42582). Described as above.
In test [5] the target is NF1-B1 (yeast two-hybrid fusion) (mouse) (UniProt P97863). The experiment in a line: two-hybrid; pGADT7-AD and pGBKT7-DBD fusions co-transformed into S. cerevisiae AH109; interaction as growth on -Ade/-His/-Leu/-Trp plates; three independent experiments.
In test [6] the target is NF1-A (yeast two-hybrid fusion) (mouse) (UniProt Q02780). Described as above.

“NKX2-5 C-terminal region (aa198-318) (yeast two-hybrid fusion) (from UniProt P42582 198-318) (domain or fragment)”: the binding entry in test [1] and in test [2] was “binds” each time.

In the case of “NKX2-5∆HD (NKX2-5 V142_Q199del) (Cerulean or Venus fusion for psFRET) (from UniProt P42582 1-141; P42582 200-318)”, the binding result in test [3] and in test [4] was “binds” throughout.

For “Full-length NKX2-5 (yeast two-hybrid fusion) (from UniProt P42582 1-318)”, the values for the binding result in test [5] and in test [6] were “binds” and “no binding”, respectively.
